The test is described as follows: qHTS Assay for Lipid Storage Modulators in Drosophila S3 Cells.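 For cell number change: cells counted by Cell Tracker Red CMTPX staining in the red channel.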 The following applies: BODIPY lipid droplet fluorescence, 18-24 h; for cell number change: measured here: cell count max response, cells fed with added oleic acid. In a few lines: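 Drosophila S3 cells loaded with oleic acid (400 uM, as added) and compounds at several concentrations; lipid droplets imaged by 488-nm laser-scanning cytometry, 500–530 nm intensity and object ratio to cell channel. Percent activity normalized to 20 uM Triacsin C.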
For orientation: Quantitative high-throughput screening tests each substance at several concentrations.

Setting [1] is: measured here: lipid fluorescence (Fed channel) AC50, cells fed with added oleic acid.
Where [2] appears, read: measured here: cell number channel AC50, cells fed with added oleic acid.

Some of the results follow. Further columns of the screen follow, without active or inactive calls. Most of these compounds were active or inconclusive in the main read-out, so they are no random draw. The note in brackets gives the kind of curve behind each potency; many fits are weak.

In the case of `COc1cccc(C(=O)Nc2cc3c(cc2Cl)OCCCO3)c1`, the cell number change is 1.73%. A word on the AC50: it is the concentration giving half of the maximal activity seen. A low value points to greater potency. Take `Cc1noc(C)c1S(=O)(=O)Nc1ccc(O)c2c(=O)cc(-c3ccccc3Cl)oc12`: the cell number change was -11.8%. The AC50 under setting [1] is 0.651 µM [falling, partial curve, poor fit]. With `COc1ccc(C(=O)N2CCN(S(=O)(=O)c3ccc(F)cc3)CC2)cc1OC`, the cell number change is -1.31%. The AC50 under setting [2] was 0.146 µM [rising, single point].

On to `CC(=O)NCCC(=O)Nc1nc(C)c(Cc2ccc3c(c2)OCO3)s1`, for which the cell number change came to 7.66%. Under setting [1], the AC50 is 1.84 µM [rising, full curve].

As to `COc1ccc(/C=C/C(=O)NC(=S)NNC(=O)c2cc(OC)c(OC)c(OC)c2)cc1`, the cell number change worked out at 2.92%. Further, under setting [2], the AC50 was 1.84 µM [falling, partial curve]. In addition, the AC50 under setting [1] is 3.66 µM [falling, full curve]. For the compound `O=c1cc(O)c2ccccc2n1Cc1ccccc1Cl`, the cell number change was 16.8%. The AC50 under setting [1] was 1.3 µM [rising, partial curve]. As for `Cc1ccc(NC(=O)c2ccc3c(=O)n4c(nc3c2)CCCCC4)cc1F`, the cell number change is -7.62%. Take `O=S(=O)(NCCOc1ccccc1)c1ccc2ccccc2c1`: the cell number change is 15.1%. Also, the AC50 under setting [1] is 0.517 µM [falling, full curve, poor fit]. Take `CCC1(c2ccccc2)NC(=O)N(CC(=O)Nc2ccc(S(=O)(=O)N3CC(C)CC(C)C3)cc2)C1=O` (configuration not stated): the cell number change came out at 1.42%. In addition, the AC50 under setting [2] was 0.651 µM [falling, full curve, poor fit]. Take `Cc1onc(-c2ccccc2Cl)c1C(=O)NNC(=O)c1ccccc1F`: the cell number change was 1.9%. Turning to `Cc1ccc(N=Cc2c(O)n(-c3ccc4c(c3)OCO4)c(=O)c3ccccc23)cc1`, the AC50 under setting [1] is 6.51 µM [rising, partial curve]. As for `O=C(NC(=S)Nc1ccc(S(=O)(=O)N2CCCCC2)cc1)c1cccs1`, the cell number change was 4.82%. In addition, under setting [1], the AC50 is 2.06 µM [rising, partial curve, poor fit].

Regarding `COc1ccc(S(=O)(=O)N2CCN(C(=O)C3CC3)CC2)cc1Br`, the cell number change turned out to be 5.51%. The AC50 under setting [1] was 4.11 µM [falling, single point]. `COc1ccc(CCn2c(O)c(C=Nc3cccc(F)c3)c(=O)[nH]c2=O)cc1OC`: the cell number change was -0.427%. As for `O=C(CN1CCCC1c1cccs1)Nc1cccc(S(=O)(=O)N2CCCC2)c1` (configuration not stated), the cell number change is -0.278%. Besides, the AC50 under setting [1] was 9.2 µM [falling, partial curve]. Consider `CC(=O)c1cccc(NC(=O)CN(C)Cc2ccc(OC(F)F)cc2)c1`, for which the cell number change was -17.9%. For the same compound, under setting [1], the AC50 is 29.1 µM [falling, single point]. Regarding `O=C(Cc1cccs1)NC1(C(=O)NC2CCCC2)CCCCC1`, the cell number change is -4.03%. In addition, the AC50 under setting [1] was 29.1 µM [falling, single point]. Consider `CC1(C)Cc2c(c(=S)nc(-c3ccccc3)n2CCO)CO1`, for which, under setting [1], the AC50 was 0.411 µM [falling, full curve].

Consider `CC(=O)Nc1cccc(NC(=O)COc2ccc3c(c2)CCC3)c1`, for which the cell number change was -11.7%. Besides, the AC50 under setting [1] was 3.26 µM [falling, full curve, poor fit].

Take `O=C(CN1CCN(CC(=O)Nc2ccc(F)cc2)CC1)NCC1(N2CCOCC2)CCCCC1`: the cell number change is -31.4%. Also, under setting [1], the AC50 is 0.411 µM [rising, single point]. As for `CC(=O)Nc1ccc(NC(=O)CCCNC(=O)c2ccc(Cl)cc2)cc1`, the cell number change stood at 7.89%. On to `Cc1cc(C)n(CC(O)COc2ccccc2Br)n1` (configuration not stated), for which the cell number change was -6.04%. Moreover, the AC50 under setting [1] was 23.1 µM [rising, single point]. On to `Cc1ccc(N(CC(=O)NCc2ccc(F)cc2)C(=O)CCC(=O)Nc2ccccn2)cc1C`, for which the cell number change was found to be 5.22%. The AC50 under setting [1] is 14.6 µM [rising, partial curve]. For the compound `COc1ccc(CCNC(=O)c2ccc(Cl)cc2Cl)cc1`, the cell number change amounted to 4.16%. Under setting [1], the AC50 was 20.6 µM [rising, single point]. For the compound `O=C(CCl)N=c1sccn1Cc1cccc2ccccc12`, the cell number change is -9.76%. `COc1ccccc1CNC(=O)c1cc(-c2ccccc2C)nn1CC1CC(c2cccnc2)=NO1` (configuration not stated): the cell number change was found to be 12.2%. Further, the AC50 under setting [2] was 0.731 µM [falling, single point]. With `CN(c1cccc(NC(=O)c2ccc(Cl)c(S(=O)(=O)N3CCOCC3)c2)c1)S(C)(=O)=O`, the cell number change is -14.7%. As to `CN1C(C(=O)NCCc2cccs2)CC2Cn3c(nc4ccccc43)C21` (configuration not stated), under setting [1], the AC50 was 6.51 µM [rising, partial curve, poor fit]. With `CCN(CC)c1ccc(C=C2C(=O)OC3(CCCCC3)OC2=O)cc1`, the cell number change was 1.71%. Under setting [2], the half-maximal activity concentration (AC50) was 4.11 µM [rising, partial curve]. On to `COc1cccc(C2=CC(c3ccccc3)n3ncnc3N2)c1` (configuration not stated), for which the cell number change is -26.6%. In addition, the AC50 under setting [1] is 10.3 µM [falling, partial curve, poor fit]. With `COc1ccc(N2C(=O)NC3CC2(C)Oc2ccccc23)cc1OC` (configuration not stated), the cell number change is 7.18%. Further, under setting [1], the AC50 is 29.1 µM [rising, single point]. Take `CCCCNC(=O)C12CCC(C)(C(=O)C1Br)C2(C)C` (configuration not stated): the cell number change is -4.88%. In addition, the AC50 under setting [1] was 29.1 µM [falling, single point]. Turning to `Cc1ccc(C2CC(c3cccs3)=NN2C(=O)c2ccco2)o1` (configuration not stated), the cell number change was found to be 6.28%. The AC50 under setting [2] was 0.184 µM [rising, full curve, poor fit]. With `NCc1oc(-c2ccccc2)cc1C(=O)O`, the cell number change was determined as 1.92%. For the same compound, the AC50 under setting [1] is 6.51 µM [rising, single point]. In the case of `CC1CCCCC1NC(=O)/C=C/c1nc2ccccc2s1` (configuration not stated), the AC50 under setting [1] is 29.1 µM [falling, single point]. In the case of `COc1ccccc1CNC(=O)CSC(=S)N1CCCC1`, the cell number change is -8.11%. The AC50 under setting [1] is 0.206 µM [falling, full curve].

For the compound `O=C(c1ccco1)N(CCC(c1ccccc1)c1ccco1)Cc1ccccc1` (configuration not stated), the cell number change is -7.4%. Moreover, the AC50 under setting [1] is 0.231 µM [falling, full curve, poor fit]. For the compound `COc1ccc(CCNC(=O)c2cc(-c3ccc(C)cc3O)n[nH]2)cc1OC`, the cell number change was 13.2%. Also, under setting [1], the AC50 is 2.91 µM [rising, partial curve].

In the case of `COc1ccccc1-n1c(-c2ccccc2)n[nH]c1=S`, the cell number change was -13.3%. The AC50 under setting [1] is 1.84 µM [falling, partial curve, poor fit]. Take `CCn1ncc(CN2CCC(C(=O)Nc3cccc(-c4cccc(F)c4)c3)CC2)c1C`: the cell number change worked out at 19.8%. For the same compound, the half-maximal activity concentration (AC50) under setting [1] was 6.51 µM [rising, single point]. In the case of `CCCN1CCC(NC(=O)C2CCCCC2C(=O)O)CC1` (configuration not stated), the cell number change was 18.8%. Also, the AC50 under setting [1] was 29.1 µM [rising, single point]. For `FC(F)(Cl)c1nnc2ccc(Sc3ccccn3)nn12`, the cell number change is -17.3%. In addition, the AC50 under setting [2] was 0.058 µM [falling, partial curve, poor fit]. Moreover, the AC50 under setting [1] is 5.8 µM [falling, full curve, poor fit].

As for `CC1(C)CC(N(Cc2ccc(F)cc2)C(=O)c2ccc(F)cc2)CCO1` (configuration not stated), the cell number change was found to be 15.6%. Besides, under setting [2], the AC50 was 7.31 µM [rising, single point]. Besides, under setting [1], the AC50 is 4.61 µM [rising, single point]. In the case of `CCOC(=O)C1CCCN(C(=O)c2ccc(OC(C)=O)cc2)C1` (configuration not stated), the cell number change came to 10.4%. Further, the AC50 under setting [1] was 0.13 µM [rising, full curve, poor fit]. As to `CCN(CC)c1cccc(OC2=NS(=O)(=O)c3ccccc32)c1`, the cell number change was -48.2%. In addition, the AC50 under setting [2] is 29.1 µM [falling, single point]. Further, the AC50 under setting [1] is 29.1 µM [falling, single point].

For the compound `O=c1c(F)cn(C2CCCO2)c(=O)n1Cc1ccccc1Cl` (configuration not stated), the cell number change was -2.21%. Take `O=C(c1ccc2nc[nH]c2c1)N1CCN(c2cccc(Cl)c2)CC1`: the cell number change is -3.24%. Turning to `O=C(c1ccncc1)N1CCN(S(=O)(=O)c2ccc(F)cc2)CC1`, the cell number change came out at 19.7%. Moreover, the AC50 under setting [1] is 29.1 µM [rising, single point]. Regarding `CCSc1nnc(NC(=O)c2cccc(OCc3c(C)noc3C)c2)s1`, the cell number change was -17.6%.

Regarding `Cc1ccc(NC(=O)N2CCc3ccccc32)cc1C`, the cell number change turned out to be 13.4%. Besides, the AC50 under setting [2] was 0.092 µM [falling, full curve, poor fit]. As to `COc1ccc(C2CC(c3ccccc3)=NN2C(=O)COC(=O)c2nc3nc(C)cc(C)n3n2)cc1` (configuration not stated), the concentration at half-maximal activity (AC50) runs as follows: under setting [2], 5.17 µM [rising, partial curve]; under setting [1], 4.61 µM [rising, single point]. Turning to `CCN(Cc1ccccc1)C(=O)C1CCN(Cc2sccc2C)CC1`, the cell number change was found to be 17.6%. In addition, the AC50 under setting [1] was 8.2 µM [rising, partial curve].

Consider `CCCCCc1n[nH]c2c1CCCC2`, for which the cell number change was -16.8%.

Turning to `COc1ccc(NC(=O)CC2C(=O)N(c3cccc(OC)c3)C(=O)N2C(C)C)cc1` (configuration not stated), the cell number change was determined as 0.934%.

For `COC(=O)/C=C/CC(C)OS(N)(=O)=O` (configuration not stated), the cell number change was determined as 20.1%.

As for `Cc1ccc(S(=O)(=O)Nc2ccc3c(c2)nc(CCN2CCCC2)n3C)cc1`, the AC50 was 6.51 µM [rising, single point] under setting [2] and 1.46 µM [rising, partial curve, poor fit] under setting [1].

On to `Cc1ccc(NC(=O)c2cc(-c3ccc4c(c3)OCO4)on2)cc1C`, for which the cell number change was -4.17%. The AC50 under setting [1] was 1.16 µM [rising, single point]. Consider `COc1cc(OC)c(C2=NOC(C(=O)Nc3ccc4c(c3)OCO4)C2)cc1Cl` (configuration not stated), for which the cell number change is 22.1%. In addition, the AC50 under setting [1] is 0.731 µM [rising, single point]. Consider `O=C(NC1CCCCC1)C(=S)N1CCCC1`, for which, under setting [1], the AC50 was 8.2 µM [rising, partial curve]. For the compound `O=C(NCCC1=CCCCC1)c1cnccn1`, the cell number change was -4.23%. For the same compound, the AC50 under setting [1] was 1.3 µM [rising, partial curve, poor fit]. Take `O=C(CC(C(=O)O)c1ccccc1)Nc1ccccc1` (configuration not stated): the cell number change was -22.3%. For the same compound, the AC50 under setting [1] is 0.00517 µM [falling, full curve, poor fit]. Take `CCOC(=O)c1sc(NC(=O)CN2CCN(c3ccccc3)CC2)nc1C`: the cell number change is -10.7%. For the same compound, the AC50 under setting [1] was 29.1 µM [rising, single point]. Turning to `COc1ccc(/C=C2\SC(=O)N(CC(=O)NNC(=O)c3ccccc3O)C2=O)cc1`, the cell number change was -8.15%. With `CSc1nccc(N/N=C/c2ccccc2)n1`, the cell number change was 8.38%. The AC50 under setting [1] was 8.2 µM [falling, single point]. As for `COc1ccccc1N1CCN(C(=O)c2cc3cc(Br)ccc3oc2=O)CC1`, the cell number change turned out to be 14.1%. For the same compound, under setting [1], the AC50 was 6.51 µM [rising, single point]. As to `c1ccc(Nc2ncnc3c2oc2ccccc23)cc1`, the AC50 is 0.58 µM [falling, full curve] under setting [2] and 32.6 µM [falling, single point] under setting [1].

The values above are taken from PubChem BioAssay AID2685 (National Center for Advancing Translational Sciences (NCATS), 2010).
